These are yes or no findings as the source states them, for the method shown. Binding seen in cells or lysates may run through a third protein. Some binding calls cover weakened binding; strength is not graded here.
Biological target: von Hippel–Lindau (VHL) protein (pVHL), HEK293 cells (human (endogenous in HEK293)) (UniProt P40337)
Assay: co-IP; lysates of PLN-transfected HEK293 cells, 4 h after 20 μM CCCP with or without 5 mM NAC; pVHL pull-down fractions on SureBeads Protein G Magnetic Beads; Western blot with anti-PLN antibody

The chains behind the UniProt entries cited, without tags or fusion partners.
UniProt P40337: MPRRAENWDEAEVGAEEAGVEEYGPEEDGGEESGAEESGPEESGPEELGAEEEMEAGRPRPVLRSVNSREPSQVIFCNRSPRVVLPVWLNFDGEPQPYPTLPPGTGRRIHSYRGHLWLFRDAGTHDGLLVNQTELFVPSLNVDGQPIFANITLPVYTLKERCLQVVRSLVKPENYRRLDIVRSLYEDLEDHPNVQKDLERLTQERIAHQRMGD
UniProt P26678: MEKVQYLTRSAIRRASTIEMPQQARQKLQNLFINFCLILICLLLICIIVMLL

binding: binds
Substance: phospholamban (PLN), transfected in HEK293 cells (from UniProt P26678 1-52)

— publication PMC5713202
